PubChem BioAssay AID1224828, NIAID – 2016
Test: 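Regulators linking TLR4 signalling to p65 nuclear translocation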 (primary screen). Cells: mouse RAW264.7 G9 macrophage reporter cells (GFP-p65, Tnf promoter-mCherry). Reagents: siRNA pool against mouse genes, 100 nM. Timing: 2 days siRNA transfection, then 40 min LPS before fixation. Challenge: LPS (Salmonella minnesota R595) at 10 ng/ml. Detection: 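Microscopy ratio of nuclear to perinuclear-ring GFP-p65 signal, scaled to the plate median; gene score is the average of two replicate robust z-scores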. Direction: p65 translocation robust z-score: higher = more nuclear NF-kappaB p65 after LPS than the plate median; nuclear/cytoplasmic p65 ratio: higher = more nuclear NF-kappaB p65. Hit rule: 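Called active when z exceeds 3.3 or falls under -1.56 (median of Tlr4 controls), giving activity score of at least 50; no calls for control wells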. Calls: active = hit (p65 shift raised or lowered); inactive = no clear change.
The deposit covers about 17,000 reagents; this is a part drawn at random. 762 of all reagents (4.5%) count as active. 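Active calls include both raised and lowered p65 entry, mostly lowered; wells with fewer than 50 cells lack a z-score.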 Raw values vary from plate to plate and are shown uncorrected. Reagents against one gene are numbered here. Reagent sequences are not shown.

Gene	reagent	p65 translocation robust z-score	nuclear/cytoplasmic p65 ratio, rep 1	nuclear/cytoplasmic p65 ratio, rep 2	low cell count flag	Call
Gabrr1 (gamma-aminobutyric acid type A receptor subunit rho 1)	1	-0.75	1.34	1.27	enough cells to score	inactive
Or4k44 (olfactory receptor family 4 subfamily K member 44)	1	2.46	1.53	2.13	enough cells to score	inactive
Plcb4 (phospholipase C, beta 4)	1	-0.06	1.52	1.37	enough cells to score	inactive
Pspc1 (paraspeckle protein 1)	1	0.17	1.52	1.24	enough cells to score	inactive
Kcnj10	1		1.27	1.2	fewer than 50 cells per well; well left out of scoring	inactive
Mefv (Mediterranean fever)	1	2.07	1.73	1.59	enough cells to score	inactive
Dclk2 (doublecortin-like kinase 2)	1	-1.32	1.61	1.22	enough cells to score	inactive
Sirpa (signal-regulatory protein alpha)	1	-0.19	1.51	1.35	enough cells to score	inactive
Fgf10 (fibroblast growth factor 10)	1	0.34	1.46	1.44	enough cells to score	inactive
Cttn (cortactin)	1	0.09	1.42	1.45	enough cells to score	inactive
Abcc6 (ATP-binding cassette, sub-family C member 6)	1	-0.22	1.58	1.58	enough cells to score	inactive
Cldn2 (claudin 2)	1	0	1.47	1.38	enough cells to score	inactive
Mtfr2 (mitochondrial fission regulator 2)	1	-0.52	1.33	1.2	enough cells to score	inactive
Evc (EvC ciliary complex subunit 1)	1	-1.08	1.33	1.22	enough cells to score	inactive
Trim9 (tripartite motif-containing 9)	1	-1.63	1.21	1.3	enough cells to score	active
Trim9 (tripartite motif-containing 9)	2	0.96	1.52	1.33	enough cells to score	inactive
Wiz (widely-interspaced zinc finger motifs)	1	0.24	1.4	1.28	enough cells to score	inactive
Emp1 (epithelial membrane protein 1)	1	1.3	1.6	1.53	enough cells to score	inactive
Nepn (nephrocan)	1	0.09	1.36	1.49	enough cells to score	inactive
Nab2 (Ngfi-A binding protein 2)	1	-0.45	1.4	1.27	enough cells to score	inactive
Or8u9 (olfactory receptor family 8 subfamily U member 9)	1	-1.46	1.45	1.35	enough cells to score	inactive
Fcgr1 (Fc receptor, IgG, high affinity I)	1	-0.28	1.44	1.32	enough cells to score	inactive
Ppid (peptidylprolyl isomerase D (cyclophilin D))	1	0.7	1.63	1.47	enough cells to score	inactive
S100a7a (S100 calcium binding protein A7A)	1	-0.6	1.44	1.62	enough cells to score	inactive
Btla (B and T lymphocyte associated)	1	1.68	1.62	1.8	enough cells to score	inactive
Kcng3 (potassium voltage-gated channel, subfamily G, member 3)	1	-0.22	1.43	1.36	enough cells to score	inactive

An excerpt from the list above, as a working copy:
Gene	reagent	p65 translocation robust z-score	nuclear/cytoplasmic p65 ratio, rep 1	nuclear/cytoplasmic p65 ratio, rep 2	low cell count flag	Call
Nab2 (Ngfi-A binding protein 2)	1	-0.45	1.4	1.27	enough cells to score	inactive
Or8u9 (olfactory receptor family 8 subfamily U member 9)	1	-1.46	1.45	1.35	enough cells to score	inactive
Fcgr1 (Fc receptor, IgG, high affinity I)	1	-0.28	1.44	1.32	enough cells to score	inactive
Ppid (peptidylprolyl isomerase D (cyclophilin D))	1	0.7	1.63	1.47	enough cells to score	inactive
S100a7a (S100 calcium binding protein A7A)	1	-0.6	1.44	1.62	enough cells to score	inactive

The list goes on:
Gene	reagent	p65 translocation robust z-score	nuclear/cytoplasmic p65 ratio, rep 1	nuclear/cytoplasmic p65 ratio, rep 2	low cell count flag	Call
Minar1 (membrane integral NOTCH2 associated receptor 1)	1	-1.41	1.38	1.35	enough cells to score	inactive
Mtpn (myotrophin)	1	0.17	1.78	1.64	enough cells to score	inactive
Sidt1 (SID1 transmembrane family, member 1)	1	0.07	1.58	1.87	enough cells to score	inactive
Fbxo41 (F-box protein 41)	1	0.91	1.6	1.78	enough cells to score	inactive
Dkkl1 (dickkopf-like 1)	1	-1.28	1.31	1.59	enough cells to score	inactive
Bivm (basic, immunoglobulin-like variable motif containing)	1	0.22	1.47	1.55	enough cells to score	inactive
Cyp2d34 (cytochrome P450, family 2, subfamily d, polypeptide 34)	1	1.93	1.98	1.86	enough cells to score	inactive
Stard4 (StAR related lipid transfer domain containing 4)	1	-0.18	1.41	1.2	enough cells to score	inactive
Lhx2 (LIM homeobox protein 2)	1	-0.68	1.63	1.43	enough cells to score	inactive
Ugdh (UDP-glucose dehydrogenase)	1	3	1.76	1.58	enough cells to score	inactive
Mapre3 (microtubule-associated protein, RP/EB family, member 3)	1	-1.44	1.23	1.18	enough cells to score	inactive
Lama4 (laminin, alpha 4)	1	0.02	1.51	1.36	enough cells to score	inactive
Stard3nl (STARD3 N-terminal like)	1	0.81	1.56	1.3	enough cells to score	inactive
Frk (fyn-related kinase)	1	-0.04	1.8	1.28	enough cells to score	inactive
Zar1 (zygote arrest 1)	1	1.3	1.5	1.4	enough cells to score	inactive
Zer1 (zyg-11 related, cell cycle regulator)	1		1.11	1.24	fewer than 50 cells per well; well left out of scoring	inactive
Map1b (microtubule-associated protein 1B)	1	-0.31	1.28	1.41	enough cells to score	inactive
Mbd6 (methyl-CpG binding domain protein 6)	1	-0.74	1.48	1.64	enough cells to score	inactive
Or8k17 (olfactory receptor family 8 subfamily K member 17)	1	-0.15	1.54	1.64	enough cells to score	inactive
Hpdl (4-hydroxyphenylpyruvate dioxygenase-like)	1	-0.68	1.5	1.71	enough cells to score	inactive
Sorbs2 (sorbin and SH3 domain containing 2)	1	0.93	1.53	1.7	enough cells to score	inactive
Rapsn (receptor-associated protein of the synapse)	1	-0.64	1.44	1.24	enough cells to score	inactive
Scara3 (scavenger receptor class A, member 3)	1	0.53	1.6	1.58	enough cells to score	inactive
Als2cl (ALS2 C-terminal like)	1	0.53	1.42	1.93	enough cells to score	inactive
Elac2 (elaC ribonuclease Z 2)	1	0.09	1.54	1.32	enough cells to score	inactive
Rfng (RFNG O-fucosylpeptide 3-beta-N-acetylglucosaminyltransferase)	1	0.48	1.45	1.3	enough cells to score	inactive
Sptlc3 (serine palmitoyltransferase, long chain base subunit 3)	1	1.31	1.57	1.75	enough cells to score	inactive
Tmco1 (transmembrane and coiled-coil domains 1)	1	1.25	1.49	1.58	enough cells to score	inactive
Bhmt2 (betaine-homocysteine methyltransferase 2)	1		1.39	1.26	fewer than 50 cells per well; well left out of scoring	inactive
Sstr5 (somatostatin receptor 5)	1	-0.74	1.46	1.42	enough cells to score	inactive
Cabyr (calcium binding tyrosine phosphorylation regulated)	1	-0.77	1.47	1.52	enough cells to score	inactive
Kansl3 (KAT8 regulatory NSL complex subunit 3)	1	0.95	1.4	1.36	enough cells to score	inactive
Map4 (microtubule-associated protein 4)	1	-0.77	1.65	1.49	enough cells to score	inactive
Zfp595 (zinc finger protein 595)	1	-0.71	1.32	1.4	enough cells to score	inactive
Exd1 (exonuclease 3'-5' domain containing 1)	1	-1.25	1.14	1.13	enough cells to score	inactive
Slc60a2c	1	1.63	1.85	2.08	enough cells to score	inactive
Pgap4 (post-GPI attachment to proteins GalNAc transferase 4)	1	-0.47	1.56	1.53	enough cells to score	inactive
Ankzf1 (ankyrin repeat and zinc finger domain containing 1)	1	-0.34	1.66	1.36	enough cells to score	inactive
Oxt (oxytocin)	1	-0.27	1.48	1.36	enough cells to score	inactive
Calb2 (calbindin 2)	1	-0.84	1.46	1.66	enough cells to score	inactive
Htra2 (HtrA serine peptidase 2)	1	-0.43	1.42	1.37	enough cells to score	inactive
Papss1 (3'-phosphoadenosine 5'-phosphosulfate synthase 1)	1	-1.33	1.61	1.21	enough cells to score	inactive
4933427E11Rik (RIKEN cDNA 4933427E11 gene)	1	1.32	1.48	1.64	enough cells to score	inactive
Lactb (lactamase, beta)	1	-1.18	1.38	1.27	enough cells to score	inactive
Mpp2	1	-0.03	0	1.37	enough cells to score	inactive
Patz1 (POZ (BTB) and AT hook containing zinc finger 1)	1	0.55	1.6	1.57	enough cells to score	inactive
Fancc (Fanconi anemia, complementation group C)	1	1.42	1.67	1.54	enough cells to score	inactive
Trhr2 (thyrotropin releasing hormone receptor 2)	1	2.59	1.7	1.35	enough cells to score	inactive
Rab8b (RAB8B, member RAS oncogene family)	1	0.57	1.44	1.29	enough cells to score	inactive
